The exact form of at least one protein or probe is not confirmed.
Target: meFUS RGG3PY (PRMT1-methylated) (UniProt P35637)
Assay: NMR 1H-15N HSQC titration
Conditions: 30 uM protein, 0-7.5 uM RNA, arginine-methylated, CSPs higher, binding stated stronger than unmethylated; 50 mM sodium succinate pH 6.0, 150 mM NaCl, 2 mM TCEP, 0.04% NaN3, 10% D2O, 25 C; recombinant protein; residues 454-526; protein details: His6-protein A tag removed by TEV

By UniProt entry, the sequences of proteins in these tests, tags left out. Residues count along the entry.
UniProt P35637, 454-526: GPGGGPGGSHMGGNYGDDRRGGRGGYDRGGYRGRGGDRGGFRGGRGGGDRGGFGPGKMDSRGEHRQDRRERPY

UGUGUGUGUGUGUGUGUGUGUGUG [(UG)12 RNA]
binding result: binds
